These are yes or no findings as the source states them, for the method shown. Binding seen in cells or lysates may run through a third protein. Binding calls can cover weak binding; strength is not graded here.
Target: NLS mutant TEAD3-Myc/Flag (human) (UniProt Q99594)
Assay: co-IP; anti-Myc IP of MYC-tagged WT or NLS mutant TEAD3 from cell lysates, Western blot of endogenous partners; WT TEAD3 also after 20 μg/ml bleomycin for the indicated time points; lysis buffer with universal nuclease

Chains of the proteins cited; added tags and fusions are not shown. Lines headed by an entry give the natural chain unless they say otherwise; changes in a name come on top.
UniProt Q99594: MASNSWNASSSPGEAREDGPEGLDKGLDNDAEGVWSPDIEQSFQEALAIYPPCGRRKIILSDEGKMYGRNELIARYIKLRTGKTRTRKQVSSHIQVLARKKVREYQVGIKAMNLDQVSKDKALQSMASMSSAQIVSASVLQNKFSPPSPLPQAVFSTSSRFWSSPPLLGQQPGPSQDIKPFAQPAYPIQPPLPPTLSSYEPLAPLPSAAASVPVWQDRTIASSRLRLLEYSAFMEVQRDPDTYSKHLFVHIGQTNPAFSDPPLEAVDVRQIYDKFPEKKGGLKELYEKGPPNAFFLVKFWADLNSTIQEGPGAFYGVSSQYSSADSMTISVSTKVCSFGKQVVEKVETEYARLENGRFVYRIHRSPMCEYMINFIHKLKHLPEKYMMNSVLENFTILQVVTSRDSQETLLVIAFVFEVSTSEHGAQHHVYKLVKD
UniProt P46937: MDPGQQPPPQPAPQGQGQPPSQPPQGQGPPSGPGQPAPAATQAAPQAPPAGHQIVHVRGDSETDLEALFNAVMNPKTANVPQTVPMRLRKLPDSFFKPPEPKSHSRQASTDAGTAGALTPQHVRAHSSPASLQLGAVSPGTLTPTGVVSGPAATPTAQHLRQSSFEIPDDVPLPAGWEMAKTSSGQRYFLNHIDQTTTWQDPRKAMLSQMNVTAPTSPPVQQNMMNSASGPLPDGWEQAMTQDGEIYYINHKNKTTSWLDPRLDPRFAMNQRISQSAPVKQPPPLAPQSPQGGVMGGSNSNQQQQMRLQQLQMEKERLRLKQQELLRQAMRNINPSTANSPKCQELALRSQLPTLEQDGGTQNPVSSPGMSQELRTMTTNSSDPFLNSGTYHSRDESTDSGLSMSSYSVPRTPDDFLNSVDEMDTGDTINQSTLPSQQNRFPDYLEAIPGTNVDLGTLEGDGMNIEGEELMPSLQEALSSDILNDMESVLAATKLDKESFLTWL

Yes-associated protein (YAP) (from UniProt P46937 1-504)
binding: binds

Reference: publication PMC9947421
